Data on five molecules can be found in doi:10.1101/780460.

The chains behind the UniProt entries cited, without tags or fusion partners. Where a name states a change or a piece, a line headed by the entry shows the natural chain unless it says otherwise. A line that says so, or that is headed by a name, gives the form on record, which may keep a tag or linker. Residues count along the entry.
UniProt P00441: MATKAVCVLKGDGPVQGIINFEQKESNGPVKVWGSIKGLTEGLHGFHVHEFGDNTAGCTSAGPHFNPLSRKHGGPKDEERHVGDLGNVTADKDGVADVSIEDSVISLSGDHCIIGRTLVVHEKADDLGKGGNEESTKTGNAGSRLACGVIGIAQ
misfolded human SOD1^G93A at spinal cord mitochondria of SOD1^G93A rats (P00441, form named): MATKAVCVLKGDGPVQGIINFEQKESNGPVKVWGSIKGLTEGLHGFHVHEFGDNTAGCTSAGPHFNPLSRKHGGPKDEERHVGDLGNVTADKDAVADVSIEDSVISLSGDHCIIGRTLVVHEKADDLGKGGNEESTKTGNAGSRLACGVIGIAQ
UniProt P10719, residues 47-529: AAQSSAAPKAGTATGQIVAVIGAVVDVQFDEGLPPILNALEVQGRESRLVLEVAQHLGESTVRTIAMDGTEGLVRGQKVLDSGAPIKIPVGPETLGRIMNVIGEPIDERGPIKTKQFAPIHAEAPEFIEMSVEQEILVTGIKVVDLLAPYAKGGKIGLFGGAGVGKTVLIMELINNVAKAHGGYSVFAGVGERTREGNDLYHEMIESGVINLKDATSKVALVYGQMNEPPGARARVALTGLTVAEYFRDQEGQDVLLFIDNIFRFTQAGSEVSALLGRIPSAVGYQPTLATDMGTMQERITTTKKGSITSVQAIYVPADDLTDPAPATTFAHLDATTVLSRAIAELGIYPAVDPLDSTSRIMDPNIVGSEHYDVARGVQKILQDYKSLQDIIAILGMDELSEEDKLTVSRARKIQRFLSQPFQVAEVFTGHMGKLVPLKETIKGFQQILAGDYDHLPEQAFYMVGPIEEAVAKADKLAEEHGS
UniProt Q9Z2L0: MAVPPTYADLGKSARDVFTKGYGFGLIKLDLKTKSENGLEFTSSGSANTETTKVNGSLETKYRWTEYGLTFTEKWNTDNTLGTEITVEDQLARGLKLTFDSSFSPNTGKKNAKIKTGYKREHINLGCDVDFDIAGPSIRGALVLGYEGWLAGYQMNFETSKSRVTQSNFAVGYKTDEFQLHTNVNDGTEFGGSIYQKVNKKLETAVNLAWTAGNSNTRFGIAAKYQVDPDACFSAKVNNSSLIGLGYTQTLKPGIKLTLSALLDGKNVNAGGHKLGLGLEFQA

Read-outs that look alike come from different tables or passages of the source. These are yes or no findings as the source states them, for the method shown. In cells and extracts the contact can be indirect. These calls come from enrichment with a bait or labelling near it, and not all partners need be listed.

Experiment [1] has as its target misfolded human SOD1^G93A at spinal cord mitochondria of SOD1^G93A rats (human) (UniProt P00441). Kind of experiment: affinity purification with mass spectrometry.
The target is the same in experiment [2]. Put plainly: affinity purification with mass spectrometry. This is another data set of the same source.

On to “ATP synthase subunit β (ATP5B), rat, endogenous (from UniProt P10719 47-529)”, for which the binding result in experiment [1] is reported as “binds”.
Consider “voltage-gated anion channel 1 (VDAC1), rat, endogenous (from UniProt Q9Z2L0 1-283)”, for which, in experiment [1], the binding entry is recorded as “binds”.

B1: TNF receptor-associated factor 6 (TRAF6), rat, endogenous (protein, UniProt B5DF45 1-530)
chain: MSLLNCENSCASSQSSSDCCAAMANSCSAAMKDDSVSGCVSTGNLSSSFMEEIQGYDVEFDPPLESKYECPICLMALREAVQTPCGHRFCKACITKSIRDAGHKCPVDNEILLENQLFPDNFAKREILSLTVKCPNKGCVQKMELRHLEDHQVHCEFALVICPQCQRFFQKCQINKHIIEDCPRRQVSCVNCAVPMPYEEKEIHDQSCPLANIICEYCGTILIREQMPNHYDLDCPTAPVPCTFSVFGCHEKMQRNHLARHLQENTQLHMRLLAQAVHNVNLSLRPCDASSPSRGCRPEDPNYEETVKQLEGRLVRQDHQIRELTAKMETQSMHVSELKRTIRSLEDKVAEMEAQQCNGIYIWKIGNFGMHLKSQEEERPVVIHSPGFYTGRPGYKLCMRLHLQLPTAQRCANYISLFVHTMQGEYDSHLPWPFQGTIRLTILDQSEAVIRQNHEEVMDAKPELLAFQRPTIPRNPKGFGYVTFMHLEALRQGTFIKDDTLLVRCEVSTRFDMGGLRKEGFQPRSTDAGV
B1: the binding result in experiment [2] is on record as “binds”.

B2: 2-oxoglutarate dehydrogenase (OGDH), rat, endogenous (protein, UniProt Q5XI78 41-1023)
chain: SAPVAAEPFLSGTSSNYVEEMYCAWLENPKSVHKSWDIFFRNTNAGAPPGTAYQSPLSLSRSSLATMAHAQSLVEAQPNVDKLVEDHLAVQSLIRAYQIRGHHVAQLDPLGILDADLDSSVPADIISSTDKLGFYGLHESDLDKVFHLPTTTFIGGQEPALPLREIIRRLEMAYCQHIGVEFMFINDLEQCQWIRQKFETPGIMQFTNEEKRTLLARLVRSTRFEEFLQRKWSSEKRFGLEGCEVLIPALKTIIDMSSANGVDYVIMGMPHRGRLNVLANVIRKELEQIFCQFDSKLEAADEGSGDMKYHLGMYHRRINRVTDRNITLSLVANPSHLEAADPVVMGKTKAEQFYCGDTEGKKVMSILLHGDAAFAGQGIVYETFHLSDLPSYTTHGTVHVVVNNQIGFTTDPRMARSSPYPTDVARVVNAPIFHVNSDDPEAVMYVCKVAAEWRNTFHKDVVVDLVCYRRNGHNEMDEPMFTQPLMYKQIRKQKPVLQKYAELLVSQGVVNQPEYEEEISKYDKICEEAFTRSKDEKILHIKHWLDSPWPGFFTLDGQPRSMTCPSTGLEEDILTHIGNVASSVPVENFTIHGGLSRILKTRRELVTNRTVDWALAEYMAFGSLLKEGIHVRLSGQDVERGTFSHRHHVLHDQNVDKRTCIPMNHLWPNQAPYTVCNSSLSEYGVLGFELGFAMASPNALVLWEAQFGDFNNMAQCIIDQFICPGQAKWVRQNGIVLLLPHGMEGMGPEHSSARPERFLQMCNDDPDVLPNLQEENFDISQLYDCNWIVVNCSTPGNFFHVLRRQILLPFRKPLIVFTPKSLLRHPEARTSFDEMLPGTHFQRVIPEDGPAAQNPDKVKRLLFCTGKVYYDLTRERKARDMAEEVAITRIEQLSPFPFDLLLKEAQKYPNAELAWCQEEHKNQGYYDYVKPRLRTTIDRAKPVWYAGRDPAAAPATGNKKTHLTELQRFLDTAFDLDAFKKFS
As to B2, the binding result in experiment [2] is “binds”.

B3: ATP synthase F0 complex subunit β1 (ATP5F1), rat, endogenous (protein, UniProt P19511 43-256)
chain: PLPPLPEYGGKVRLGLIPEEFFQFLYPKTGVTGPYVLGTGLSLYFLSKEIYVITPETFSTISVVGLIVYVIKKYGASIGEFIDKLNEEKIAQLEEIKQSSMKQIQDAINREKAQQALVQKRHYLFDVQRNNIALALEVTYRERLHKAYKEVKNRLDYHISVQDMMRRKEGEHMINWVEKHVIQSISAQQEKETIAKCIGDLKMLAKKAQAQPIM
In the case of B3, in experiment [2], the binding entry is listed as “binds”.
